Here are results for 5 substances from PMC5605516.

By UniProt entry, the sequences of proteins in these tests, tags left out. Where a name states a change or a piece, a line headed by the entry shows the natural chain unless it says otherwise. Chains listed by the source or under a name are the forms on record and can include a tag or linker. Residues count along the entry.
UniProt Q7Z434: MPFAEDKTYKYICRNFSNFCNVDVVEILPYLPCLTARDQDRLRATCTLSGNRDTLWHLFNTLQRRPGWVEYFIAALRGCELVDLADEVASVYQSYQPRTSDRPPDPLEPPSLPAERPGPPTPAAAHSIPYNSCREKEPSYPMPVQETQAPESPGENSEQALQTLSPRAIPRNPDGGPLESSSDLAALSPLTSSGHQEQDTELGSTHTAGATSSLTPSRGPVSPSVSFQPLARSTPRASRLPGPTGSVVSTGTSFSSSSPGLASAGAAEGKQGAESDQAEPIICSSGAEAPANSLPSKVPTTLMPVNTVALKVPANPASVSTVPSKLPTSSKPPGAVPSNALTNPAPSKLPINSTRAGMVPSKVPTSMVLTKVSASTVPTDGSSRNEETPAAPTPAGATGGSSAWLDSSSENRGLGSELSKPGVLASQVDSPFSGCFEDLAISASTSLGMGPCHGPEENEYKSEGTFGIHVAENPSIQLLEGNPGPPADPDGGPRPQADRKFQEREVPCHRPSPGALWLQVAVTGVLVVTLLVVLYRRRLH
MAVS CARD fragment fused to the Gal4 DNA-binding domain: residues 10-77 of Q7Z434
UniProt Q9BYX4: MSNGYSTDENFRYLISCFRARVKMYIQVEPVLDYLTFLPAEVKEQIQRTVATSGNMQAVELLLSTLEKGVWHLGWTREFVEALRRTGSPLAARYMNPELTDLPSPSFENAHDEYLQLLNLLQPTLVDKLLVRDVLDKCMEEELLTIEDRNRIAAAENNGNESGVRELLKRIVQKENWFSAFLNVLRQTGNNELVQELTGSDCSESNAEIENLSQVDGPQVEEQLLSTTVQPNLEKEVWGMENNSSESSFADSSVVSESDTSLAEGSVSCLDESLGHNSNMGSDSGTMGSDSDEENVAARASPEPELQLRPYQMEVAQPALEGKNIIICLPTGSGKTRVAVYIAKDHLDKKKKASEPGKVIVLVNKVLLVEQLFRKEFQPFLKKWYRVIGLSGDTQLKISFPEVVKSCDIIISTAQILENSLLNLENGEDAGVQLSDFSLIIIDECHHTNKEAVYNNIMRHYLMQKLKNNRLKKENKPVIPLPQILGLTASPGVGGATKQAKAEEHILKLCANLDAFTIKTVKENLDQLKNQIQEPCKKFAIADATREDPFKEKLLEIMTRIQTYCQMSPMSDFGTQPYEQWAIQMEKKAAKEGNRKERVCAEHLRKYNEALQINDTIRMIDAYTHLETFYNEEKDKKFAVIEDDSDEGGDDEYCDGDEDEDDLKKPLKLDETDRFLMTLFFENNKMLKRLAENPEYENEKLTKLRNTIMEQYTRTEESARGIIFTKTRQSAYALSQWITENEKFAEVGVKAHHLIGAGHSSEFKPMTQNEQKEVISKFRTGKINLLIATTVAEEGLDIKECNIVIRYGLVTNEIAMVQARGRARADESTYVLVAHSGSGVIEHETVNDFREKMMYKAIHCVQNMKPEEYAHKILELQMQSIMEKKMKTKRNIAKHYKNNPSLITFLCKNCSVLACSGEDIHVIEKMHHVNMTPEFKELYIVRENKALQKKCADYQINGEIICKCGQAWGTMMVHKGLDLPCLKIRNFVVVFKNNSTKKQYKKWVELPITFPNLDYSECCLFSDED
UniProt Q15942: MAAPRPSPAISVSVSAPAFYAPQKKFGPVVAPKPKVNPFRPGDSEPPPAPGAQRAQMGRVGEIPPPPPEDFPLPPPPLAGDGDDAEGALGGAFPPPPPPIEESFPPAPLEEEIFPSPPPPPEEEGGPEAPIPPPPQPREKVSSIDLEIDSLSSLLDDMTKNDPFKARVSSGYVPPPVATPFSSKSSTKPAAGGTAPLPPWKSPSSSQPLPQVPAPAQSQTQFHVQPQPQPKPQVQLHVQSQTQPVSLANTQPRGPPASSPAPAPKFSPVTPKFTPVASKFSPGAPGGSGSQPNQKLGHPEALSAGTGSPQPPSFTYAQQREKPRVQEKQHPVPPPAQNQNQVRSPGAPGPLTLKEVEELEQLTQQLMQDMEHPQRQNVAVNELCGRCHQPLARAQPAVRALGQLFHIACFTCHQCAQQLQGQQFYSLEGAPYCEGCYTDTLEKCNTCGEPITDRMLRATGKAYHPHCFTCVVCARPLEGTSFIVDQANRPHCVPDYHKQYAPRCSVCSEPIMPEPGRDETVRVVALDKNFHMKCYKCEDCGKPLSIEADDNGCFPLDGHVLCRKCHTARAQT
UniProt O95786: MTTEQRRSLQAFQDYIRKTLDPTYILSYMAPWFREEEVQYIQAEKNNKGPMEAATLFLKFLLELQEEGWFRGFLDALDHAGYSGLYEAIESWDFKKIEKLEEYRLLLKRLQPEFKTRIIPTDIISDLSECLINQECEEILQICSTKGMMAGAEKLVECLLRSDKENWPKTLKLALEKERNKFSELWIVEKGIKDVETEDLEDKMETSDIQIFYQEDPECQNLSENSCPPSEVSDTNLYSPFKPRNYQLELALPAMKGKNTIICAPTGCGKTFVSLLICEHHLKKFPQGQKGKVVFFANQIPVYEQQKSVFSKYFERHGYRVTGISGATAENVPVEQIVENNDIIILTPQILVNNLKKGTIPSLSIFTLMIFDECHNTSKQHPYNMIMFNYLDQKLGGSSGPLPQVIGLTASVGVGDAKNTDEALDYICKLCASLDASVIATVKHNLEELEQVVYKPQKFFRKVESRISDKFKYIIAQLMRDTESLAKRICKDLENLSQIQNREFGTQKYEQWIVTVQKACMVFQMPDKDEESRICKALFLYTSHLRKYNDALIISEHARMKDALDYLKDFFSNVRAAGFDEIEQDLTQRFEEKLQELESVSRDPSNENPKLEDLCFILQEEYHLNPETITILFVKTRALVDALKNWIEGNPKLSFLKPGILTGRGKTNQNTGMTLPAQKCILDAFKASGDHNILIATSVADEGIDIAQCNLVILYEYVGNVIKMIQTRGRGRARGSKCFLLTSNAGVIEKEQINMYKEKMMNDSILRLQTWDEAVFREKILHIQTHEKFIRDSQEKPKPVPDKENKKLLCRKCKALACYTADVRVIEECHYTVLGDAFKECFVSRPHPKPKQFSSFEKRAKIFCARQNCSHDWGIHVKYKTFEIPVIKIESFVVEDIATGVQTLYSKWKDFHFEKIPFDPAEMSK

These are yes or no findings as the source states them, for the method shown. Binding can be weak; no strength is given. For some assays here: In cells and extracts the contact can be indirect.

The target of test [1] is MAVS CARD fragment fused to the Gal4 DNA-binding domain (bait) (UniProt Q7Z434). In words: two-hybrid; screen: MAVS CARD bait (pGBKT7) against a human lung cDNA library (prey) in AH109 yeast; SD-WLH and SD-WLHA selection plates.
For test [2] the target is unchanged. In words: two-hybrid; retest: AH109 yeast transformed with MAVS CARD bait and zyxin C-terminal region prey; growth on selective medium (SD-WLH in the text, SD-WLHA in the legend); empty prey plasmid as control.
In another test the target is FLAG-tagged MDA5 (UniProt Q9BYX4). In words: co-IP.
Test [3] concerns the target zyxin N-terminal fragment, HA-tagged (human) (UniProt Q15942). In words: co-IP; HEK293FT transfected for 24 h with Zyxin-HA fragments and FLAG-MAVS or FLAG-RIG-I; IP with anti-HA antibody, western blot. In general terms: Immunoblotting shows a protein as a band on a membrane.
In test [4] the target is zyxin C-terminal fragment, HA-tagged (human) (UniProt Q15942). The test is described as above.

With “zyxin C-terminal region fused to the Gal4 activation domain (prey) (from UniProt Q15942) (domain or fragment)”, the binding result in test [1] and in test [2] was “binds” in each case.

Take “zyxin N-terminal fragment, HA-tagged (from UniProt Q15942) (domain or fragment)”: in the test with FLAG-tagged MDA5, the binding result was “binds”.

On to “FLAG-tagged MAVS (from UniProt Q7Z434 1-540)”, for which the binding result in test [3] is reported as “no binding”; in test [4], “binds”.

On to “zyxin C-terminal fragment, HA-tagged (from UniProt Q15942) (domain or fragment)”, for which the binding result with FLAG-tagged MDA5 is listed as “binds”.

Take “FLAG-tagged RIG-I (from UniProt O95786 1-925)”: the binding result in test [3] and in test [4] was “binds” in each case.
